# The other results are listed elsewhere or left out.
# How the values were obtained:
# Experiment in all cases: glycan array binding signal (z-score within array); higher = stronger binding
# Conditions in all cases: glycan notation: IUPAC condensed, linker removed
# [1] = target: Fuc(a1-2)Gal
# In short: (§1)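 The binding signal is a Z-score computed within each array and averaged over linkers. Arrays of the same protein sequence at different concentrations or buffers were also averaged together. Data originate from 3228 arrays in the Consortium for Functional Glycomics database, kept only where the protein sequence was available.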
# [2] = target: Fuc(a1-2)Gal(b1-3)GalNAc
# In short: as §1
# [3] = target: Fuc(a1-2)Gal(b1-3)GalNAc(b1-3)Gal
# In short: as §1
# [4] = target: Fuc(a1-2)Gal(b1-3)GalNAc(b1-3)Gal(a1-4)Gal(b1-4)Glc
# In short: as §1
# [5] = target: Fuc(a1-2)Gal(b1-3)GalNAc(b1-3)Gal(b1-4)Glc
# In short: as §1
# [6] = target: Fuc(a1-2)Gal(b1-3)GalNAc(b1-4)[Neu5Ac(a2-3)]Gal(b1-4)Glc
# In short: as §1
# [7] = target: Fuc(a1-2)Gal(b1-3)[Fuc(a1-4)]GlcNAc
# In short: as §1
# [8] = target: Fuc(a1-2)Gal(b1-4)Glc
# In short: as §1
# [9] = target: Fuc(a1-2)Gal(b1-4)Glc6S
# In short: as §1
# [10] = target: Fuc(a1-2)Gal(b1-4)GlcNAc
# In short: as §1
# [11] = target: Fuc(a1-2)Gal(b1-4)GlcNAc(b1-3)Gal(b1-4)GlcNAc
# In short: as §1
# [12] = target: Fuc(a1-2)Gal(b1-4)GlcNAc(b1-3)Gal(b1-4)GlcNAc(b1-3)Gal(b1-4)GlcNAc
# In short: as §1
# [13] = target: Fuc(a1-2)Gal(b1-4)GlcNAc6S
# In short: as §1
# [14] = target: Fuc(a1-2)Gal(b1-4)[Fuc(a1-3)]GalNAc(b1-3)Gal(b1-4)[Fuc(a1-3)]GlcNAc
# In short: as §1
# [15] = target: Fuc(a1-2)Gal(b1-4)[Fuc(a1-3)]GalNAc(b1-3)Gal(b1-4)[Fuc(a1-3)]GlcNAc(b1-3)Gal(b1-4)[Fuc(a1-3)]GalNAc
# In short: as §1
# [16] = target: Fuc(a1-2)Gal(b1-4)[Fuc(a1-3)]GlcNAc
# In short: as §1
# [17] = target: Fuc(a1-2)Gal6S(b1-4)Glc
# In short: as §1
# [18] = target: Fuc(a1-2)Gal6S(b1-4)Glc6S
# In short: as §1
# [19] = target: Fuc(a1-2)Gal6S(b1-4)GlcNAc
# In short: as §1
# [20] = target: Fuc(a1-2)GlcNAc
# In short: as §1
# [21] = target: Fuc(a1-2)[Gal(a1-3)]Gal
# In short: as §1
# [22] = target: Fuc(a1-2)[Gal(a1-3)]Gal(b1-3)GlcNAc
# In short: as §1
# [23] = target: Fuc(a1-2)[Gal(a1-3)]Gal(b1-4)Glc
# In short: as §1
# [24] = target: Fuc(a1-2)[Gal(a1-3)]Gal(b1-4)GlcNAc
# In short: as §1
# [25] = target: Fuc(a1-2)[Gal(a1-3)]Gal(b1-4)[Fuc(a1-3)]GlcNAc
# In short: as §1
# [26] = target: Fuc(a1-2)[Gal(a1-4)]Gal(b1-4)GalNAc
# In short: as §1
# [27] = target: Fuc(a1-2)[GalNAc(a1-3)]Gal
# In short: as §1
# [28] = target: Fuc(a1-2)[GalNAc(a1-3)]Gal(b1-3)GlcNAc
# In short: as §1
# [29] = target: Fuc(a1-2)[GalNAc(a1-3)]Gal(b1-4)Glc
# In short: as §1
# [30] = target: Fuc(a1-2)[GalNAc(a1-3)]Gal(b1-4)GlcNAc
# In short: as §1
# [31] = target: Fuc(a1-2)[GalNAc(a1-3)]Gal(b1-4)[Fuc(a1-3)]GlcNAc
# In short: as §1
# [32] = target: Fuc(a1-2)[GalNAc(a1-4)]Gal(b1-4)GlcNAc
# In short: as §1
# [33] = target: Fuc(a1-3)GlcNAc
# In short: as §1
# [34] = target: Fuc(a1-3)[Gal(b1-4)]Glc6S
# In short: as §1
# [35] = target: Fuc(a1-3)[Gal(b1-4)]GlcNAc
# In short: as §1
# [36] = target: Fuc(a1-3)[Gal(b1-4)]GlcNAc(b1-3)Gal(b1-3)[Fuc(a1-4)]GlcNAc
# In short: as §1
# [37] = target: Fuc(a1-3)[Gal(b1-4)]GlcNAc(b1-4)Gal(b1-4)[Fuc(a1-3)]GlcNAc
# In short: as §1
# [38] = target: Fuc(a1-3)[Gal(b1-4)]GlcNAc(b1-4)Gal(b1-4)[Fuc(a1-3)]GlcNAc(b1-4)Gal(b1-4)[Fuc(a1-3)]GlcNAc
# In short: as §1
# [39] = target: Fuc(a1-3)[Gal(b1-4)]GlcNAc6S
# In short: as §1
# [40] = target: Fuc(a1-3)[Gal3S(b1-4)]Glc
# In short: as §1
# [41] = target: Fuc(a1-3)[Gal3S(b1-4)]Glc6S
# In short: as §1
# [42] = target: Fuc(a1-3)[Gal3S(b1-4)]GlcNAc
# In short: as §1
# [43] = target: Fuc(a1-3)[Gal3S(b1-4)]GlcNAc6S
# In short: as §1
# [44] = target: Fuc(a1-3)[GalNAc(b1-4)]Gal(b1-4)GlcNAc
# In short: as §1
# [45] = target: Fuc(a1-4)GlcNAc
# In short: as §1
# [46] = target: Fuc(b1-3)GlcNAc
# In short: as §1
# [47] = target: Gal(a1-2)Gal
# In short: as §1
# [48] = target: Gal(a1-3)Gal
# In short: as §1
# [49] = target: Gal(a1-3)Gal(b1-3)Glc
# In short: as §1
# [50] = target: Gal(a1-3)Gal(b1-3)GlcNAc
# In short: as §1
# [51] = target: Gal(a1-3)Gal(b1-4)GlcNAc
# In short: as §1
# [52] = target: Gal(a1-3)Gal(b1-4)[Fuc(a1-3)]GalNAc
# In short: as §1
# [53] = target: Gal(a1-3)GlcNAc
# In short: as §1
# [54] = target: Gal(a1-3)[Gal(a1-4)]Gal(b1-4)GlcNAc
# In short: as §1
# [55] = target: Gal(a1-4)Gal(b1-4)Gal
# In short: as §1
# [56] = target: Gal(a1-4)Gal(b1-4)GalNAc
# In short: as §1
# [57] = target: Gal(a1-4)GlcNAc
# In short: as §1
# [58] = target: Gal(a1-6)Glc
# In short: as §1
# [59] = target: Gal(b1-2)Gal
# In short: as §1
# [60] = target: Gal(b1-3)Gal
# In short: as §1
# [61] = target: Gal(b1-3)GalNAc
# In short: as §1
# [62] = target: Gal(b1-3)GalNAc(b1-3)Gal(a1-4)Gal(b1-4)Glc
# In short: as §1
# [63] = target: Gal(b1-3)GalNAc(b1-3)Gal(b1-4)Glc
# In short: as §1
# [64] = target: Gal(b1-3)GalNAc(b1-3)Gal(b1-4)GlcNAc
# In short: as §1
# [65] = target: Gal(b1-3)GalNAc(b1-4)Gal(b1-4)Glc
# In short: as §1
# [66] = target: Gal(b1-3)GalNAc(b1-4)[Neu5Ac(a2-3)]Gal(b1-4)Glc
# In short: as §1
# [67] = target: Gal(b1-3)GlcNAc(b1-3)Gal(b1-3)GlcNAc
# In short: as §1
# [68] = target: Gal(b1-3)[Fuc(a1-4)]GlcNAc
# In short: as §1
# [69] = target: Gal(b1-3)[Fuc(a1-4)]GlcNAc(b1-3)Gal(b1-3)[Fuc(a1-4)]GlcNAc
# In short: as §1
# [70] = target: Gal(b1-3)[Fuc(a1-4)]GlcNAc(b1-3)Gal(b1-4)GlcNAc
# In short: as §1
# [71] = target: Gal(b1-3)[Fuc(a1-4)]GlcNAc(b1-3)Gal(b1-4)[Fuc(a1-3)]GlcNAc
# In short: as §1
# [72] = target: Gal(b1-3)[GlcNAc(b1-6)]GalNAc
# In short: as §1
# [73] = target: Gal(b1-3)[GlcNAc(b1-6)]GlcNAc
# In short: as §1
# [74] = target: Gal(b1-3)[Neu5Ac(a2-6)]GalNAc
# In short: as §1
# [75] = target: Gal(b1-3)[Neu5Ac(a2-6)]GlcNAc
# In short: as §1
binder,measurement,setting,value
"Tim-4 (Mus musculus), Q6U7R4 (protein) MSKGLLLLWLVTELWWLYLTPAASEDTIIGFLGQPVTLPCHYLSWSQSRNSMCWGKGSCPNSKCNAELLRTDGTRIISRKSTKYTLLGKVQFGEVSLTISNTNRGDSGVYCCRIEVPGWFNDVKKNVRLELRRATTTKKPTTTTRPTTTPYVTTTTPELLPTTVMTTSVLPTTTPPQTLATTAFSTAVTTCPSTTPGSFSQETTKGSAFTTESETLPASNHSQRSMMTISTDIAVLRPTGSNPGILPSTSQLTTQKTTLTTSESLQKTTKSHQINSRQTILIIACCVGFVLMVLLFLAFLLRGKVTGANCLQRHKRPDNTEDSDSVLNDMSHGRDDEDGIFTL",glycan array binding signal (z-score),[1],0.432
same,glycan array binding signal (z-score),[2],-0.114
same,glycan array binding signal (z-score),[3],0.408
same,glycan array binding signal (z-score),[4],0.044
same,glycan array binding signal (z-score),[5],-0.304
same,glycan array binding signal (z-score),[6],-0.596
same,glycan array binding signal (z-score),[7],-0.129
same,glycan array binding signal (z-score),[8],-0.285
same,glycan array binding signal (z-score),[9],-0.704
same,glycan array binding signal (z-score),[10],-0.04
same,glycan array binding signal (z-score),[11],-0.92
same,glycan array binding signal (z-score),[12],-0.337
same,glycan array binding signal (z-score),[13],-0.318
same,glycan array binding signal (z-score),[14],-0.501
same,glycan array binding signal (z-score),[15],0.502
same,glycan array binding signal (z-score),[16],-0.17
same,glycan array binding signal (z-score),[17],-0.217
same,glycan array binding signal (z-score),[18],-0.345
same,glycan array binding signal (z-score),[19],-0.749
same,glycan array binding signal (z-score),[20],-0.042
same,glycan array binding signal (z-score),[21],0.259
same,glycan array binding signal (z-score),[22],0.285
same,glycan array binding signal (z-score),[23],-0.353
same,glycan array binding signal (z-score),[24],0.043
same,glycan array binding signal (z-score),[25],-0.055
same,glycan array binding signal (z-score),[26],0.022
same,glycan array binding signal (z-score),[27],-0.169
same,glycan array binding signal (z-score),[28],-0.402
same,glycan array binding signal (z-score),[29],-0.344
same,glycan array binding signal (z-score),[30],-0.326
same,glycan array binding signal (z-score),[31],0.089
same,glycan array binding signal (z-score),[32],-0.22
same,glycan array binding signal (z-score),[33],0
same,glycan array binding signal (z-score),[34],0.314
same,glycan array binding signal (z-score),[35],-0.399
same,glycan array binding signal (z-score),[36],0.006
same,glycan array binding signal (z-score),[37],-0.188
same,glycan array binding signal (z-score),[38],-0.717
same,glycan array binding signal (z-score),[39],0.089
same,glycan array binding signal (z-score),[40],-0.394
same,glycan array binding signal (z-score),[41],0.515
same,glycan array binding signal (z-score),[42],0.118
same,glycan array binding signal (z-score),[43],0.063
same,glycan array binding signal (z-score),[44],0.005
same,glycan array binding signal (z-score),[45],-0.355
same,glycan array binding signal (z-score),[46],-0.139
same,glycan array binding signal (z-score),[47],0.046
same,glycan array binding signal (z-score),[48],1.05
same,glycan array binding signal (z-score),[49],-0.271
same,glycan array binding signal (z-score),[50],-0.128
same,glycan array binding signal (z-score),[51],0.671
same,glycan array binding signal (z-score),[52],-0.299
same,glycan array binding signal (z-score),[53],0.503
same,glycan array binding signal (z-score),[54],-0.083
same,glycan array binding signal (z-score),[55],0.11
same,glycan array binding signal (z-score),[56],-0.122
same,glycan array binding signal (z-score),[57],0.103
same,glycan array binding signal (z-score),[58],0.878
same,glycan array binding signal (z-score),[59],0.166
same,glycan array binding signal (z-score),[60],0.453
same,glycan array binding signal (z-score),[61],-0.235
same,glycan array binding signal (z-score),[62],-0.394
same,glycan array binding signal (z-score),[63],-0.637
same,glycan array binding signal (z-score),[64],-0.297
same,glycan array binding signal (z-score),[65],0.014
same,glycan array binding signal (z-score),[66],-0.391
same,glycan array binding signal (z-score),[67],-0.425
same,glycan array binding signal (z-score),[68],-0.394
same,glycan array binding signal (z-score),[69],0.394
same,glycan array binding signal (z-score),[70],-0.187
same,glycan array binding signal (z-score),[71],-0.25
same,glycan array binding signal (z-score),[72],-0.192
same,glycan array binding signal (z-score),[73],-0.396
same,glycan array binding signal (z-score),[74],-0.479
same,glycan array binding signal (z-score),[75],-0.355

# 3 entries from above, set out differently.
binder	measurement	setting	value
Tim-4 (Mus musculus), Q6U7R4 (protein) MSKGLLLLWLVTELWWLYLTPAASEDTIIGFLGQPVTLPCHYLSWSQSRNSMCWGKGSCPNSKCNAELLRTDGTRIISRKSTKYTLLGKVQFGEVSLTISNTNRGDSGVYCCRIEVPGWFNDVKKNVRLELRRATTTKKPTTTTRPTTTPYVTTTTPELLPTTVMTTSVLPTTTPPQTLATTAFSTAVTTCPSTTPGSFSQETTKGSAFTTESETLPASNHSQRSMMTISTDIAVLRPTGSNPGILPSTSQLTTQKTTLTTSESLQKTTKSHQINSRQTILIIACCVGFVLMVLLFLAFLLRGKVTGANCLQRHKRPDNTEDSDSVLNDMSHGRDDEDGIFTL	glycan array binding signal (z-score)	[28]	-0.402
same	glycan array binding signal (z-score)	[29]	-0.344
same	glycan array binding signal (z-score)	[30]	-0.326

# Source: the supplement of paper PMC8728848
